Laboratory results reported in the supplement of paper PMC8104966.
This is one part of the list. Repeats in this data set agree poorly, so a single value says little.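 Fusion between ACE2-bearing and full-length-spike-bearing U2OS cells was measured by imaging as the percentage of nuclei with both cell types' fluorescent markers. An inhibitory hit is a non-toxic compound whose fusion z-score is below -3, more than three standard deviations beneath the plate's DMSO wells.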

tested on: U2OS ACE2 x SARS-CoV-2 spike co-culture; test: cell-cell fusion (fraction fused) z-score vs plate DMSO control; higher = more fusion; details: 30 µM; 5 h; toxicity class: non-toxic, passed QC

Compound | cell-cell fusion (z-score)
COc1cc(NC(C)CCCN)c2ncccc2c1.O=P(O)(O)O.O=P(O)(O)O (stereo not given) | active: -4.49
C[C@]12CCC3C(CC[C@H]4C[C@H](O)CC[C@]34C)C1CC[C@@H]2C(=O)CO (stereo partly drawn) [3-alpha,21-Dihydroxy-5-alpha-pregnan-20-one] | inactive: 2.75
CC1(C)O[C@@H]2CC3C4C[C@H](F)C5=CC(=O)C=C[C@]5(C)[C@@]4(F)[C@@H](O)C[C@]3(C)[C@]2(C(=O)CO)O1 (stereo not given in full) | inactive: 0.391
CC(N)c1cccc(Cl)c1Cl.Cl (racemic) [(±)-2,3-Dichloro-alpha-methylbenzylamine hydrochloride] | inactive: 3.35
Cc1ccc(-c2cc(C(F)(F)F)nn2-c2ccc(S(N)(=O)=O)cc2)cc1 [Celecoxib] | inactive: 0.487
CC1=C(/C=C/C(C)=C/C=C/C(C)=C/C=C/C=C(C)/C=C/C=C(C)/C=C/C2=C(C)C(=O)C(O)CC2(C)C)C(C)(C)CC(O)C1=O (stereo not given) | inactive: 2.59
CN(C)Cc1c[nH]c2ccccc12 | inactive: 2.04
COc1cccc2c1CCCC2CCCN1CCN(C2CCCCC2)CC1.Cl.Cl (stereo not given) [PB 28 dihydrochloride] | inactive: 0.633
Nc1ncn([C@H]2C[C@H](O)[C@@H](CO)O2)c(=O)n1 [Decitabine] | inactive: 1.8
Nc1ccc(O)c(C(=O)O)c1 [Mesalamine] | inactive: 1.38
Nc1nc(=O)[nH]cc1F | inactive: 1.39
CC(C)(C(=O)c1cccnc1)c1cccnc1 [Metyrapone] | inactive: 1.65
CN1CC(=O)NC1=N | inactive: 0.115
C[C@]1(Cn2ccnn2)C(C(=O)O)N2C(=O)CC2S1(=O)=O (stereo not given in full) | inactive: 1.58
Nc1nc(=O)c(Br)c(-c2ccccc2)[nH]1 [Bropirimine] | active: -6.01
Cl.Cl.c1ccc(C(NCCNC(c2ccccc2)c2ccccc2)c2ccccc2)cc1 | inactive: 2.97
C/C=N/N(C)C=O | inactive: 1.86
Cl.Nc1c(Br)cc(Br)cc1CNC1CCC(O)CC1 (stereo not given) | inactive: 1.45
COc1c(C)c2c(c(O)c1C/C=C(\C)CCC(=O)O)C(=O)OC2 | inactive: 4.98
C[C@]12CCC(=O)C=C1C=CC1C2CC[C@@]2(C)C1CC[C@@]2(O)CCC(=O)[O-].[K+] (stereo not given in full) | inactive: 3.61
CN1C(C(=O)Nc2ccccn2)=C(O)c2ccccc2S1(=O)=O [Piroxicam] | inactive: 4.48
CC1=C(/C=C/C(C)=C/C=C/C(C)=C/C=C/C=C(C)/C=C/C=C(C)/C=C/C2=C(C)C(=O)CCC2(C)C)C(C)(C)CCC1=O [CANTHAXANTHIN (euglenanone)] | inactive: 2.58
COc1cc(/C=C/C(N)=O)cc(OC)c1OC | inactive: -0.354

Nothing new here: an excerpt of the list.
Compound | cell-cell fusion (z-score)
Nc1ccc(O)c(C(=O)O)c1 [Mesalamine] | inactive: 1.38
Nc1nc(=O)[nH]cc1F | inactive: 1.39

Going on with the list:

Compound | cell-cell fusion (z-score)
CC(C)C[C@@H](C(=O)N[C@H](C(=O)OC1CCCC1)c1ccccc1)[C@H](O)C(=O)NO [Tosedostat (CHR2797)] | inactive: 0.485
O=C(O)c1nn(Cc2ccc(Cl)cc2Cl)c2ccccc12 [Lonidamine] | inactive: 1.83
CN(C)CC[C@@H](c1ccc(Cl)cc1)c1ccccn1.O=C(O)/C=C\C(=O)O | inactive: 0.834
NC(=O)CC[C@H](N)C(=O)O [L-Glutamine] | inactive: 0.534
CS(=O)(=O)c1ccc(C(O)[C@H](CF)NC(=O)C(Cl)Cl)cc1 (stereo not given in full) | inactive: -0.201
COc1cccc(O)c1O | inactive: 1.25
COCCCOc1cc(C[C@@H](C[C@H](N)[C@@H](O)C[C@H](C(=O)NCC(C)(C)C(N)=O)C(C)C)C(C)C)ccc1OC.COCCCOc1cc(C[C@@H](C[C@H](N)[C@@H](O)C[C@H](C(=O)NCC(C)(C)C(N)=O)C(C)C)C(C)C)ccc1OC.O=C(O)/C=C/C(=O)O [Aliskiren hemifumarate] | inactive: 3.15
COc1cc2c(cc1-c1cc3cc4ccoc4cc3oc1=O)OCO2 | inactive: 3.05
Cc1cc2c(s1)Nc1ccccc1N=C2N1CCN(C)CC1 | inactive: -1.05
COc1c(CC(=O)c2cc3c(cc2O)OC(C)(C)C(O)C3)ccc2c1C=CC(C)(C)O2 (stereo not given) | inactive: 1.93
CC[C@H]1CN2CCc3cc(OC)c(OC)cc3C2C[C@@H]1CC1NCCc2cc(OC)c(OC)cc21.Cl.Cl (stereo not given in full) | inactive: 1.38
CCCCCCCCCCCCCCCC(=O)NCCO | inactive: 1.99
CCCCC(=O)N(Cc1ccc(-c2ccccc2-c2nn[n-]n2)cc1)[C@H](C(=O)[O-])C(C)C.CCCCC(=O)N(Cc1ccc(-c2ccccc2-c2nn[n-]n2)cc1)[C@H](C(=O)[O-])C(C)C.CCOC(=O)[C@H](C)C[C@@H](Cc1ccc(-c2ccccc2)cc1)NC(=O)CCC(=O)[O-].CCOC(=O)[C@H](C)C[C@@H](Cc1ccc(-c2ccccc2)cc1)NC(=O)CCC(=O)[O-].O.O.O.O.O.[NaH+].[NaH+].[NaH+].[NaH+].[NaH+].[NaH+] | inactive: 3.15
COc1ccc2c(c1)c(CC(=O)O)c(C)n2Cc1ccc(Cl)cc1 [1-(4-Chlorobenzyl)-5-methoxy-2-methylindole-3-acetic acid] | inactive: 4.13
O=C(O)CCC(=O)Nc1ccc(S(=O)(=O)Nc2nccs2)cc1 | inactive: 1.91
CC(=O)Nc1ccccc1 | inactive: 1.29
CCOC(=O)OC(C)OC(=O)C1N2C(=O)C(NC(=O)[C@H](N)c3ccccc3)C2SC1(C)C.Cl (stereo not given in full) | inactive: 2.89
COc1cc2c(cc1OC)C(C)NCC2 (stereo not given) | inactive: 1.64
CO/N=C(\C(=O)N[C@@H]1C(=O)N2C(C(=O)O)=CCS[C@H]12)c1csc(N)n1 [Ceftizoxime] | inactive: 2.12
CC(C)(C)NCC(O)COc1cccc2c1CCC(=O)N2.Cl (stereo not given) [Carteolol hydrochloride] | inactive: 1.2
CN1C[C@H](C(=O)N[C@]2(C)O[C@@]3(O)[C@@H]4CCCN4C(=O)[C@H](Cc4ccccc4)N3C2=O)C[C@@H]2c3cccc4[nH]cc(c34)C[C@H]21.CS(=O)(=O)O [Dihydroergotamine methanesulfonate] | active: -4.69
CN1C[C@H](C(=O)N[C@]2(C)O[C@@]3(O)[C@@H]4CCCN4C(=O)[C@H](Cc4ccccc4)N3C2=O)C[C@@H]2c3cccc4[nH]cc(c34)C[C@H]21.CS(=O)(=O)O | inactive: -1.95
